From publication PMC7363444 come the findings set out here.

Protein sequences, listed by entry. Tags and fused reporters are not part of them.
UniProt Q9UHB6: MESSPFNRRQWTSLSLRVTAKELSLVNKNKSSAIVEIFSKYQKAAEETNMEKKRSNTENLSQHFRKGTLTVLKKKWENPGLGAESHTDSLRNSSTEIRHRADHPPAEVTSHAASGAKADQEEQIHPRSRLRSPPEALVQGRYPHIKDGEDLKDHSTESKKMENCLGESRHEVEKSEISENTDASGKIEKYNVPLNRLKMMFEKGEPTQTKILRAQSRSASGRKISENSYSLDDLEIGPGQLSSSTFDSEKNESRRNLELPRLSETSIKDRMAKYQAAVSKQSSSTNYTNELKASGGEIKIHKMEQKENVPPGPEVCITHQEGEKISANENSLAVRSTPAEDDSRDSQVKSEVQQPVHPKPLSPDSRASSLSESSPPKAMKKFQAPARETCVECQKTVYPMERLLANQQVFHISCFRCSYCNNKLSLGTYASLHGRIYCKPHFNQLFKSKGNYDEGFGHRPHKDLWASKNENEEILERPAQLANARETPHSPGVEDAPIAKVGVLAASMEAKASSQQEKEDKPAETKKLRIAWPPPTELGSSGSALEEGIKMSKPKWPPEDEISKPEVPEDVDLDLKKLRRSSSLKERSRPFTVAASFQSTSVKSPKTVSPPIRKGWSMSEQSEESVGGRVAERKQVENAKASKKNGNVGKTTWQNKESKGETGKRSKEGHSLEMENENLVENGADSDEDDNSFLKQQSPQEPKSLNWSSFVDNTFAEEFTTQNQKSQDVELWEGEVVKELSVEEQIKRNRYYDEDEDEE
UniProt Q15154: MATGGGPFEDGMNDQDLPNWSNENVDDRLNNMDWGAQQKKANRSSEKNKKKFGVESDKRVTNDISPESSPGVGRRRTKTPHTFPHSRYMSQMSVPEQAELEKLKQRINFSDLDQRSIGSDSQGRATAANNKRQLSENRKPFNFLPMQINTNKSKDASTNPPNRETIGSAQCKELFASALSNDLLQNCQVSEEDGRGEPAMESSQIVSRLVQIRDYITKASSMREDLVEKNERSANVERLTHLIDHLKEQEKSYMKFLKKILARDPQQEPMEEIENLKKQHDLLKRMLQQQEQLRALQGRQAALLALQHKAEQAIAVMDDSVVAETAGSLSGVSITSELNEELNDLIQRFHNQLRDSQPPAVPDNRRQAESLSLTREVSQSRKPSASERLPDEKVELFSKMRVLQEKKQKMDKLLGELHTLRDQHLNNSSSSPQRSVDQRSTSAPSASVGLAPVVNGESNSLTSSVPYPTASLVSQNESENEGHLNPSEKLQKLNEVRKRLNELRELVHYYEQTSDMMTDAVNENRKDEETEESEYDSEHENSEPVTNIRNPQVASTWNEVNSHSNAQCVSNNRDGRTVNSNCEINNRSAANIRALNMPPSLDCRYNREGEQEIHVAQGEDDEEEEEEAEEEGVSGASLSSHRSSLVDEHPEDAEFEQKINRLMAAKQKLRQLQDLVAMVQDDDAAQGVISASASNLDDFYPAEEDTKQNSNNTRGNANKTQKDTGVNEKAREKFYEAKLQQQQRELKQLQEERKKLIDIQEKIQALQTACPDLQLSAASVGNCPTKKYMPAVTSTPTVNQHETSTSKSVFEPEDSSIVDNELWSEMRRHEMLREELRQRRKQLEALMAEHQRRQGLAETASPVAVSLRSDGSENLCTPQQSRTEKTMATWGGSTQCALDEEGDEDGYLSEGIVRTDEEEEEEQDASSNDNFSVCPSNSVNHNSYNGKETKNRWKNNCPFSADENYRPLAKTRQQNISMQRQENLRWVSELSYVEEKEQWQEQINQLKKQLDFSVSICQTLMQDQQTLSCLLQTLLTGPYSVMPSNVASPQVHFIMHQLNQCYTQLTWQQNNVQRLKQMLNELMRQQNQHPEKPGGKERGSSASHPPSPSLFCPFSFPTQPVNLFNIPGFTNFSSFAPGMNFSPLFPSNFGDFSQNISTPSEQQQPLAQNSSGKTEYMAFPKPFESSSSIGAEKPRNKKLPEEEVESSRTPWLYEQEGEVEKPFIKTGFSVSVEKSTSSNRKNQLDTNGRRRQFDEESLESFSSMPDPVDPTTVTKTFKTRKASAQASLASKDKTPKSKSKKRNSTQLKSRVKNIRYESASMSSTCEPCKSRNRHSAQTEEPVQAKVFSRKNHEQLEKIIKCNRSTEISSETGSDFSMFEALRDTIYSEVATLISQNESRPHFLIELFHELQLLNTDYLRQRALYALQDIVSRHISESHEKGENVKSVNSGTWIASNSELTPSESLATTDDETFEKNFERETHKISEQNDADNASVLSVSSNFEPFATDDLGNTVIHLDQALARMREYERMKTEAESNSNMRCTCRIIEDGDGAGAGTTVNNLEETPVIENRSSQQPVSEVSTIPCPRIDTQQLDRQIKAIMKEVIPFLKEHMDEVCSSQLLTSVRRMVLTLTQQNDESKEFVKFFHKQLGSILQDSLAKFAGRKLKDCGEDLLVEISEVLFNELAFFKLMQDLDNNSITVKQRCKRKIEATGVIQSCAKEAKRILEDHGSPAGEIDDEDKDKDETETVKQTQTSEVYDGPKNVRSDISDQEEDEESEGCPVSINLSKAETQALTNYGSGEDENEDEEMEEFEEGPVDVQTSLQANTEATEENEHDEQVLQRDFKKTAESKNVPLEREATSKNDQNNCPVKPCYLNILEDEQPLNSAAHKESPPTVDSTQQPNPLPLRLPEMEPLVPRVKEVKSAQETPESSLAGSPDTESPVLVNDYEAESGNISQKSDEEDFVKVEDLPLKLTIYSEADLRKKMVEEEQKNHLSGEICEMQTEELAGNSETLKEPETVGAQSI
UniProt P21333: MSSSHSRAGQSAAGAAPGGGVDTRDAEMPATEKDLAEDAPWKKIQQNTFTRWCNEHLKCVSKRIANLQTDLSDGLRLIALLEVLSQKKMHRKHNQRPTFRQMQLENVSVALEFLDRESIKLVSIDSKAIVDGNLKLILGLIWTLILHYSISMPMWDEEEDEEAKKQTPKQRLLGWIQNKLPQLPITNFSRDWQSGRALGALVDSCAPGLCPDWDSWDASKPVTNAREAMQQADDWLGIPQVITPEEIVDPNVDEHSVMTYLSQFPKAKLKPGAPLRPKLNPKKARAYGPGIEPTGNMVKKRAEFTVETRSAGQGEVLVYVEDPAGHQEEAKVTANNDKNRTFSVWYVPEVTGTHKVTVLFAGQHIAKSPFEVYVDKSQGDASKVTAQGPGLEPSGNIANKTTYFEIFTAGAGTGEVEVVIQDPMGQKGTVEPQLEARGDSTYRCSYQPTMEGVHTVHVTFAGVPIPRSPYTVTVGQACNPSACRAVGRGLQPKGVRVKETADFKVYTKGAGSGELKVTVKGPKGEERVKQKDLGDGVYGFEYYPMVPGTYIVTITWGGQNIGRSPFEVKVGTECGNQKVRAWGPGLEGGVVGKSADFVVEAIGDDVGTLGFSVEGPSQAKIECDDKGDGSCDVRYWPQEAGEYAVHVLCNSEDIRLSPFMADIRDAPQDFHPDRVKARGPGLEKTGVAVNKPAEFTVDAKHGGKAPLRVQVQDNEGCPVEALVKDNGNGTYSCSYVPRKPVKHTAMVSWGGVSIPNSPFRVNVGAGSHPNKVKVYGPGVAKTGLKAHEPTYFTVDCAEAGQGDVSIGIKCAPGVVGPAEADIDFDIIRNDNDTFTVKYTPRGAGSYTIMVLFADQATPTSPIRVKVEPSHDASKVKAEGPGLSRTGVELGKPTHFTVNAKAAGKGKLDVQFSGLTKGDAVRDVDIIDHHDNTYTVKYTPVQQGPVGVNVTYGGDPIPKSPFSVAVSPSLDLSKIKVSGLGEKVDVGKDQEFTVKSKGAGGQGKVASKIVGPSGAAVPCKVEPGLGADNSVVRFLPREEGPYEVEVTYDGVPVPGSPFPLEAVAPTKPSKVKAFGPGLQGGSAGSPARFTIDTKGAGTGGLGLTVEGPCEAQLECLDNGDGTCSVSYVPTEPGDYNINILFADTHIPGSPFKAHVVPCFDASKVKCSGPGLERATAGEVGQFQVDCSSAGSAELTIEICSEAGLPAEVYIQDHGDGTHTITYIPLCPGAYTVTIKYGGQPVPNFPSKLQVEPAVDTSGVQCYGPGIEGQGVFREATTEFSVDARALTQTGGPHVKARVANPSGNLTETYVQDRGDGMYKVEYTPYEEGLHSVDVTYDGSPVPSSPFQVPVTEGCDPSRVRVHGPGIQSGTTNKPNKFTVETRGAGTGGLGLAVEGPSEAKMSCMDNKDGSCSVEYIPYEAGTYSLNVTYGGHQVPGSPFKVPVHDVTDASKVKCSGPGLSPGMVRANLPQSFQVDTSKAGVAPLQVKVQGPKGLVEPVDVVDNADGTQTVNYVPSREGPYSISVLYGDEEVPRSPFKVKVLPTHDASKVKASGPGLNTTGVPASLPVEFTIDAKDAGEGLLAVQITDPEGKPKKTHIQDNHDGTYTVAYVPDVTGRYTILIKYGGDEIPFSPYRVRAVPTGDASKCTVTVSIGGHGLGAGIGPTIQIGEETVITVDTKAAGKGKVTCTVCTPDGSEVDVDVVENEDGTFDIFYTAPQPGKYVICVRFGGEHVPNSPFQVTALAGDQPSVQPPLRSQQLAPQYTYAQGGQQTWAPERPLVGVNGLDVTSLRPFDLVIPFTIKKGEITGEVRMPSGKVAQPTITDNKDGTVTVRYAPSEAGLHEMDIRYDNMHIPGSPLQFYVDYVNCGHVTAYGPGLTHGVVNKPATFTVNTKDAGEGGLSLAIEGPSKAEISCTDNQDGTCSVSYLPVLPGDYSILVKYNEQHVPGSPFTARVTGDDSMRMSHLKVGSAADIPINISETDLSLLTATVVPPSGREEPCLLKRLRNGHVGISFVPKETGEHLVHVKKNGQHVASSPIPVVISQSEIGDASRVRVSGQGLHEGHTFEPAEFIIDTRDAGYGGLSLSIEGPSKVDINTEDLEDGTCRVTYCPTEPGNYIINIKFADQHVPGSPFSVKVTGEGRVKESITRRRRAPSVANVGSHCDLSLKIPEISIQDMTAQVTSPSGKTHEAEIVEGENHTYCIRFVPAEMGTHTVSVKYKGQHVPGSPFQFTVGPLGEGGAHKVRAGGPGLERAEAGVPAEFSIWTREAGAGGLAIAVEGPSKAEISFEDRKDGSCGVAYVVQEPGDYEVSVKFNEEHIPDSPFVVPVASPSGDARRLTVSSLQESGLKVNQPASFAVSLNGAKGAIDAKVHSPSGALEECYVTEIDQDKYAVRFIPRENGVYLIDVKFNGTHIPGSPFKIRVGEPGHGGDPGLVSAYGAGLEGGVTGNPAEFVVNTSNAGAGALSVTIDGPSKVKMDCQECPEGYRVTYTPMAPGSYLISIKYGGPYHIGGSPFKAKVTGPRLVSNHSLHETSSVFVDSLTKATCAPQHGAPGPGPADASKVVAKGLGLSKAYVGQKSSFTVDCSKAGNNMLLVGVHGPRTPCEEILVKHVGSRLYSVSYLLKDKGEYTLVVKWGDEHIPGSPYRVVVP

First the molecules themselves.
T1: FLAG-TurboID-LUZP1 (human) (UniProt Q86V48)
T1 sequence: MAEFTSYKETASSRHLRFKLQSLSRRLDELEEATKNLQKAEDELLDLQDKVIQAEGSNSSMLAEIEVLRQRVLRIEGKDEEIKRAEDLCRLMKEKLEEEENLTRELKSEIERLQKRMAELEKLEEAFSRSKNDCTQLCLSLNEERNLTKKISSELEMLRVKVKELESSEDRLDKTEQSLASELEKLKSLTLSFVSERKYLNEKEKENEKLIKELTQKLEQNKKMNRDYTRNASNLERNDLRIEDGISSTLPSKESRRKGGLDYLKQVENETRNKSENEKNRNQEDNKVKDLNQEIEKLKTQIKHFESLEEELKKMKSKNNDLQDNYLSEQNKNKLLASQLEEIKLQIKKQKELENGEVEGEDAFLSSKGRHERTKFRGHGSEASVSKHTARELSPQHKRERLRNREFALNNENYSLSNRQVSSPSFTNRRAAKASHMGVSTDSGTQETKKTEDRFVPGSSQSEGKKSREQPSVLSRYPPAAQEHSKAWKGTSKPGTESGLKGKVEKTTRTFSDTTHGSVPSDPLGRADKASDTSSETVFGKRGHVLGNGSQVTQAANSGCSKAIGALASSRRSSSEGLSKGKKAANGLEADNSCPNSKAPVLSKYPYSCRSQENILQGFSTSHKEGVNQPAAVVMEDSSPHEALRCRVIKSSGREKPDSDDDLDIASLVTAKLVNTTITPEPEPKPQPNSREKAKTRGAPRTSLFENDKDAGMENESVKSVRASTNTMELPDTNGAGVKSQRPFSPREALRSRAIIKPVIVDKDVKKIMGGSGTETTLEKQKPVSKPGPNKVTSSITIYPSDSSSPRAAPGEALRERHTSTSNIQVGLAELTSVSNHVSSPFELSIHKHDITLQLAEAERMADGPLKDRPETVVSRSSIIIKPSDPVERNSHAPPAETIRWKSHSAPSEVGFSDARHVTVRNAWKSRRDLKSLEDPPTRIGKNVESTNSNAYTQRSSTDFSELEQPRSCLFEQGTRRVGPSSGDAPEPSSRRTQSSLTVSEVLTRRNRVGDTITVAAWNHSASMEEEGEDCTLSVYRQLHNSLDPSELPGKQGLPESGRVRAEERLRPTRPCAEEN

B1: palladin (endogenous) (protein, UniProt Q8WX93 1-1383)
chain: MSGTSSHESFYDSLSDMQEESKNTDFFPGLSAFLSQEEINKSLDLARRAIADSETEDFDSEKEISQIFSTSPASLCEHPSHKETKLGEHASRRPQDNRSTPVQPLAEKQTKSISSPVSKRKPAMSPLLTRPSYIRSLRKAEKRGAKTPSTNVKPKTPHQRKGGPQSQLCDKAANLIEELTSIFKAAKPRNRSPNGESSSPDSGYLSPKNQPSALLSASASQSPMEDQGEMEREVKSPGARHCYQDNQDLAVPHNRKSHPQPHSALHFPAAPRFIQKLRSQEVAEGSRVYLECRVTGNPTPRVRWFCEGKELHNTPDIQIHCEGGDLHTLIIAEAFEDDTGRYTCLATNPSGSDTTSAEVFIEGASSTDSDSESLAFKSRAGAMPQAQKKTTSVSLTIGSSSPKTGVTTAVIQPLSVPVQQVHSPTSYLCRPDGTTTAYFPPVFTKELQNTAVAEGQVVVLECRVRGAPPLQVQWFRQGSEIQDSPDFRILQKKPRSTAEPEEICTLVIAETFPEDAGIFTCSARNDYGSATSTAQLVVTSANTENCSYESMGESNNDHFQHFPPPPPILETSSLELASKKPSEIQQVNNPELGLSRAALQMQFNAAERETNGVHPSRGVNGLINGKANSNKSLPTPAVLLSPTKEPPPLLAKPKLDPLKLQQLQNQIRLEQEAGARQPPPAPRSAPPSPPFPPPPAFPELAACTPPASPEPMSALASRSAPAMQSSGSFNYARPKQFIAAQNLGPASGHGTPASSPSSSSLPSPMSPTPRQFGRAPVPPFAQPFGAEPEAPWGSSSPSPPPPPPPVFSPTAAFPVPDVFPLPPPPPPLPSPGQASHCSSPATRFGHSQTPAAFLSALLPSQPPPAAVNALGLPKGVTPAGFPKKASRTARIASDEEIQGTKDAVIQDLERKLRFKEDLLNNGQPRLTYEERMARRLLGADSATVFNIQEPEEETANQEYKVSSCEQRLISEIEYRLERSPVDESGDEVQYGDVPVENGMAPFFEMKLKHYKIFEGMPVTFTCRVAGNPKPKIYWFKDGKQISPKSDHYTIQRDLDGTCSLHTTASTLDDDGNYTIMAANPQGRISCTGRLMVQAVNQRGRSPRSPSGHPHVRRPRSRSRDSGDENEPIQERFFRPHFLQAPGDLTVQEGKLCRMDCKVSGLPTPDLSWQLDGKPVRPDSAHKMLVRENGVHSLIIEPVTSRDAGIYTCIATNRAGQNSFSLELVVAAKEAHKPPVFIEKLQNTGVADGYPVRLECRVLGVPPPQIFWKKENESLTHSTDRVSMHQDNHGYICLLIQGATKEDAGWYTVSAKNEAGIVSCTARLDVYTQWHQQSQSTKPKKVRPSASRYAALSDQGLDIKAAFQPEANPSHLTLNTALVESEDL

No constants are given. Whether binding was seen depends on the method and setting. In cells and extracts the contact can be indirect. These calls come from enrichment with a bait or labelling near it, and not all partners need be listed. Where a sequence is shown, tags or fusion partners need not be part of it.

This assay concerns the target T1, FLAG-TurboID-LUZP1 (human). Briefly: proximity labelling; TurboID: RPE1 cells stably expressing TbID-LUZP1 or TbID alone at sub-endogenous levels, NeutrAvidin pulldown, LC-MS/MS, three replicates.
With “LIMA1/Eplin (endogenous) (from UniProt Q9UHB6 1-759)”, the binding result is given as “binds”. For “PCM1 (endogenous) (from UniProt Q15154 1-2024)”, the binding entry is “binds”.

Take “alpha-actinin (endogenous) (human (endogenous in RPE1))”: the binding entry is “binds”. With “filamin A (endogenous) (from UniProt P21333 1-2647)” the entry was “binds”; with B1, “binds”.
